The exact form of at least one protein or probe is not confirmed. Results from cells or extracts need not show a direct contact.
Tested on: STAT5 (activated by PDGFRα-V561D, -D842V or -D842Y)
Test: EMSA with supershift
Settings: nuclear extract of doxycycline-induced cells expressing PDGFRα-V561D, EMSA as previously described (ref 55), protein in an extract, label: 32P 5' end label

AGATTTCTAGGAATTCAAATC / GATTTGAATTCCAAGAAATCT [β-casein oligonucleotide]
binding result: binds
